Reference: PubChem BioAssay AID1688 (National Center for Advancing Translational Sciences (NCATS), 2009)
Hit rate of the full screen: of about 220,000 compounds, about 2,400 (1.1%) were called active. The inconclusive results got no clear call from the source; some entries with a clear call stand among them for comparison. The call rests on the fitted dose curve; in most records, active means well fitted inhibition curve with a large enough effect; inconclusive means small, poorly fitted or top-dose-only effect, or effect the other way; inactive means no such curve, though single readings can be large or run the other way. Potencies of inconclusive entries are doubtful fits and often do not repeat.

Test: qHTS Multiplex Assay to Identify Dual Action Probes in a Cell Model of Huntington: Aggregate Formation (GFP); further: nearly all actives have a fitted effect of over 60% in size
Conditions: PC12 HttQ103-GFP aggregates, Acumen cytometry, 40 h; activity change, negative = inhibition: at 46.1 µM (top of the series) unless noted
Method in brief: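 Multiplexed with ATP-based cell death, this channel scores GFP aggregates in PC12 cells expressing inducible HTTex1-Q103-GFP. Induction used 100 nM tebufenozide; compounds were tested in concentration series.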
On the % scale 0 is the no-effect control and ±100 the full control effect; potency means the concentration at half of the fitted maximal effect.

Row | SMILES | Potency | activity change, negative = inhibition
1 | COc1cccc(Nc2ncnc3ccccc23)c1 | inconclusive: 11.2 µM [inhibitor, partial curve, poor fit] | –
2 | CCn1c(-c2cccs2)nc2ccccc21 | inconclusive: 4.47 µM [inhibitor, single point] | –
3 | Nc1ncnc(NCc2ccccc2)c1[N+](=O)[O-] | active: 11.2 µM | –
4 | COC1=C(Nc2ccc(OC)cc2)C(=O)c2ccccc2C1=O | active: 12.6 µM | –
5 | Cc1ccc(NC(=S)NC(NC(=O)c2ccccc2C)C(Cl)(Cl)Cl)c(C)c1 (centres undefined) | inconclusive: 0.282 µM [activator, full curve, poor fit] | –
6 | COc1ccc(NC(=O)CSc2nc(N)c(C(=O)Nc3ccc(N(C)C)cc3)s2)cc1 | inactive | –
7 | O=C(CSc1ncnc2c1oc1ccccc12)N1CCCc2ccccc21 | inconclusive: 35.5 µM [inhibitor, single point] | –
8 | CCCc1nc(SCC(=O)N2CCCC2)c2ccccc2n1 | inconclusive: 14.1 µM [activator, partial curve] | –
9 | O=C(Oc1c(Br)cc([N+](=O)[O-])cc1Br)c1cccnc1 | active: 35.5 µM | –
10 | CC(=O)Nc1cccc(Oc2ccc(-c3noc(C)n3)cc2)c1 | inconclusive: 11.2 µM [inhibitor, partial curve, poor fit] | –
11 | CC(C)(C)NCc1ccccc1OCc1cccs1 | inconclusive: 5.62 µM [inhibitor, single point] | –
12 | Cc1ccc(C)c(NC(=O)c2cc(-c3cccnc3)nc3ccccc23)c1 | inactive | –
13 | Cc1cc(=O)[nH]c(SCC(=O)Nc2ccc(F)cc2)c1C#N | inconclusive: 35.5 µM [inhibitor, single point] | –
14 | COc1ccccc1N1CCN(C(=O)C2CCC(Cn3c(=S)[nH]c4ccccc4c3=O)CC2)CC1 (centres undefined) | inconclusive: 14.1 µM [inhibitor, partial curve] | –
15 | COc1ccnc(Oc2ccc(F)cc2)c1C(=O)N/C=N/OCc1ccc(Cl)cc1Cl | inconclusive: 12.6 µM [inhibitor, single point] | –
16 | CC1CCCC(C)N1C(=O)CN1CCN(c2nc(-c3ccc(F)cc3)cs2)CC1 (centres undefined) | inconclusive: 22.4 µM [inhibitor, single point] | –
17 | C(=N\Nc1nc2ccccc2[nH]1)/c1c[nH]c2ccccc12 | inconclusive: 12.6 µM [activator, partial curve] | –
18 | Nc1n[nH]c2c1C1(CCCCC1)Cc1ccccc1-2 | inconclusive: 12.6 µM [inhibitor, partial curve] | –
19 | Cc1ccc(O)c(C=Nc2cc(C)ccc2O)c1 | inconclusive: 35.5 µM [inhibitor, single point] | –
20 | CCCc1nnc2n1N=C(c1ccc(OC)c(OC)c1)CS2 | inconclusive: 12.6 µM [activator, partial curve] | –
21 | Cc1cccc(Oc2ncc(-c3ccc(Cl)cc3)cn2)c1C | inactive | –
22 | CCc1cc([N+](=O)[O-])cc(CC)c1N | inconclusive: 8.91 µM [inhibitor, partial curve] | –
23 | COCc1[nH]nc2c1C(c1cccc(OC)c1)C(C#N)=C(N)O2 (centres undefined) | inactive | –

Complete entries from above.
`O=C(Oc1c(Br)cc([N+](=O)[O-])cc1Br)c1cccnc1` in the list: Potency: active: 35.5 µM
`CCCc1nnc2n1N=C(c1ccc(OC)c(OC)c1)CS2` in the list: Potency: inconclusive: 12.6 µM [activator, partial curve]
`Cc1cccc(Oc2ncc(-c3ccc(Cl)cc3)cn2)c1C` in the list: Potency: inactive
`CC1CCCC(C)N1C(=O)CN1CCN(c2nc(-c3ccc(F)cc3)cs2)CC1` (centres undefined) in the list: Potency: inconclusive: 22.4 µM [inhibitor, single point]

Carrying on.

Row | SMILES | Potency | activity change, negative = inhibition
24 | COC(=O)c1sc2nc(C)nc(SCC(=O)C(C)(C)C)c2c1C | inconclusive: 6.31 µM [inhibitor, full curve] | –
25 | O=c1nc2s/c(=C\c3ccc(-c4ccccc4[N+](=O)[O-])o3)c(=O)n2nc1-c1ccccc1 | inconclusive: 35.5 µM [activator, single point] | –
26 | O=C(NCc1cccs1)C(=O)NCC(c1ccco1)N1CCN(c2ccc(F)cc2)CC1 (centres undefined) | inconclusive: 35.5 µM [inhibitor, single point] | –
27 | Cc1ccc(NC(=O)CCC(=O)N/N=C/c2cc([N+](=O)[O-])ccc2O)cc1 | inconclusive: 11.2 µM [inhibitor, partial curve] | –
28 | NC(=O)C1(N2CCCCC2)CCN(c2nc(-c3ccc(Br)cc3)cs2)CC1 | inconclusive: 31.6 µM [inhibitor, single point] | –
29 | CCN(CC)CCNCc1cc(Br)ccc1OCC(=O)NCc1ccccc1 | inconclusive: 17.8 µM [inhibitor, single point] | –
30 | Cc1cc(C(=O)Nc2sc3c(c2C#N)CCC(C)C3)no1 (centres undefined) | inactive | –
31 | c1cc(N2CCCC2)ccc1C(c1nnnn1C1CCCCC1)N1CCOCC1 (centres undefined) | inactive | –
32 | CCOc1ccc(N2C(=O)CC(Sc3ccccc3C(=O)O)C2=O)c([N+](=O)[O-])c1 (centres undefined) | inactive | –
33 | COc1ccc(NC(=S)NCCC(c2ccccc2)c2ccccc2)c(OC)c1 | inconclusive: 20 µM [inhibitor, single point] | –
34 | Cc1cc(/C=N/NC(=O)C(O)(c2ccccc2)c2ccccc2)c(C)n1-c1cccc(C(=O)O)c1 | – | inactive: 12.3% [at 9.22 µM]
35 | COc1ccc(CNC(=O)c2c(C)nc3ccccn23)cc1 | active: 25.1 µM | –
36 | COc1cc(C(=O)Nc2nc(-c3ccc(C)cc3)cs2)ccc1OCC(=O)N1CCOCC1 | inconclusive: 35.5 µM [inhibitor, single point] | –
37 | O=C(CC(NS(=O)(=O)c1ccc(Cl)cc1)c1ccco1)NC1CCCC1 (centres undefined) | inconclusive: 11.2 µM [inhibitor, single point] | –
38 | O=C(Nc1ccccc1C(F)(F)F)N1CCC(n2c(=O)[nH]c3ccccc32)CC1 | inconclusive: 1.58 µM [activator, partial curve] | –
39 | COc1ccc(CNc2ccc(Br)cc2)cc1 | – | inactive: -3.66% [at 9.22 µM]
40 | C/C(=N/Nc1nc(-c2ccccc2)cc(-c2ccc(F)cc2)n1)c1cccc(N)c1 | inconclusive: 3.55 µM [inhibitor, partial curve] | –
41 | N#CC1=C(N)NC(SCc2ccc(F)cc2)=C(C#N)C12CCCCC2 | active: 12.6 µM | –
42 | Cc1ccc(CCC(=O)Nc2ncc(Cc3cc(Cl)ccc3Cl)s2)o1 | inconclusive: 11.2 µM [inhibitor, single point] | –
43 | C/C(=N\Nc1cc(N2CCOCC2)nc(C)n1)c1cccc([N+](=O)[O-])c1 | inconclusive: 7.08 µM [inhibitor, partial curve] | –
44 | CCCCC(=O)Nc1sc2c(c1C(=O)OCC)CCC(C=O)=C2Cl | inconclusive: 35.5 µM [inhibitor, single point] | –
45 | COc1ccc(CCNc2ncnc3sccc23)cc1OC | active: 1 µM | –
46 | CCO/C=C1/C(=O)N(c2ccccc2OC)C(=O)c2ccccc21 | inconclusive: 35.5 µM [activator, single point] | –

Row | SMILES | Potency | activity change, negative = inhibition
47 | C=CCOc1c(Br)cc(CNc2ccc(NC(=O)C(C)C)c(OC)c2)cc1OC | inconclusive: 6.31 µM [activator, full curve, poor fit] | –
48 | CC(C)c1ccc(/C=C/C(=O)N2CCc3ccccc3C2)cc1 | inconclusive: 35.5 µM [inhibitor, single point] | –
49 | OCCN1CCN(CC(O)C(F)(F)F)CC1 (centres undefined) | inconclusive: 0.501 µM [activator, partial curve] | –
50 | CCCCCCOC(=O)/C=C/c1c(C)[nH]c(=O)[nH]c1=O | inconclusive: 22.4 µM [inhibitor, partial curve] | –
51 | COc1cc(C(=O)OCc2ccc([N+](=O)[O-])cc2)cc(OC)c1OC | inconclusive: 12.6 µM [activator, single point] | –
52 | CCC(Sc1ncnc2c1nnn2-c1ccc(F)cc1)C(=O)OC (centres undefined) | inactive | –
53 | O=C(NNc1nc2ccc(F)cc2s1)c1cccc(F)c1 | active: 12.6 µM | –
54 | O=C(Nc1nnc(-c2ccco2)o1)c1ccc([N+](=O)[O-])s1 | active: 11.2 µM | –
55 | O=C(Nc1ccc(Oc2ccc3ccccc3c2)cc1)c1ccco1 | inconclusive: 20 µM [inhibitor, single point] | –
56 | O=C1CC(N2CCC(O)(c3ccc(Br)cc3)CC2)C(=O)N1c1ccc(Cl)cc1 (centres undefined) | inactive | –
57 | Cc1ccc(N2NC3(CCN(C(N)=O)CC3)NC2=O)cc1 | inconclusive: 11.2 µM [activator, partial curve] | –
58 | C[n+]1cc2c3c(ccc2c2ccc4cc5c(cc4c21)OCO5)OCO3 | active: 6.31 µM | –
59 | COc1cc(CN2CCN(Cc3ccc([N+](=O)[O-])cc3)CC2)c([N+](=O)[O-])cc1OC | inconclusive: 35.5 µM [inhibitor, single point] | –
60 | COc1cc(C(=O)N/N=C/c2sc(=O)n(-c3ccccc3)c2Cl)cc(OC)c1OC | inconclusive: 17.8 µM [activator, single point] | –
61 | O=c1nc(/C=C/c2cccn2-c2ccc([N+](=O)[O-])cc2)cc(C(F)(F)F)[nH]1 | inactive | –
62 | COc1ccc(/C=N/Nc2nc(Nc3ccccc3)nc(N3CCCCC3)n2)cc1OC | inconclusive: 35.5 µM [inhibitor, single point] | –
63 | Cc1cccc(NS(=O)(=O)c2cc(C(=O)N3CCc4ccccc4C3)ccc2Cl)c1C | inconclusive: 35.5 µM [inhibitor, single point] | –
64 | CC(C)c1ccc(OCc2ccc(C(=O)N3CCN(c4ccccn4)CC3)cc2)cc1 | inconclusive: 15.8 µM [inhibitor, single point] | –
65 | COc1ccc(C2=C(Nc3ccccc3)c3ccccc3C2=O)cc1 | inactive | –
66 | CN1C(=O)/C(=C/c2ccccc2Cl)Sc2ccc(C(=O)NCc3cccnc3)cc21 | inconclusive: 11.2 µM [inhibitor, partial curve] | –
67 | O=c1c2ccccc2ncn1CCCOc1ccccc1[N+](=O)[O-] | inconclusive: 7.94 µM [activator, partial curve] | –
68 | O=C(Nc1ccc(Cl)c(Cl)c1)Nc1ccccc1NS(=O)(=O)c1cccs1 | inconclusive: 28.2 µM [inhibitor, single point] | –
69 | CC(C)c1ccccc1NC(=O)CNCCc1ccc(C(F)(F)F)cc1 | – | inactive: -17.5% [at 9.22 µM]
